# Test results published in paper PMC5066494, “Interaction between RNA helicase ROOT INITIATION DEFECTIVE 1 and GAMETOPHYTIC FACTOR 1 is involved in female gametophyte development in Arabidopsis” (Journal of Experimental Botany, 2016).
# Biological target: T1, GAMETOPHYTIC FACTOR 1 (GFA1), full length, fused to the Gal4 DNA-binding domain (Arabidopsis) (UniProt Q9LNC5)
# T1 sequence: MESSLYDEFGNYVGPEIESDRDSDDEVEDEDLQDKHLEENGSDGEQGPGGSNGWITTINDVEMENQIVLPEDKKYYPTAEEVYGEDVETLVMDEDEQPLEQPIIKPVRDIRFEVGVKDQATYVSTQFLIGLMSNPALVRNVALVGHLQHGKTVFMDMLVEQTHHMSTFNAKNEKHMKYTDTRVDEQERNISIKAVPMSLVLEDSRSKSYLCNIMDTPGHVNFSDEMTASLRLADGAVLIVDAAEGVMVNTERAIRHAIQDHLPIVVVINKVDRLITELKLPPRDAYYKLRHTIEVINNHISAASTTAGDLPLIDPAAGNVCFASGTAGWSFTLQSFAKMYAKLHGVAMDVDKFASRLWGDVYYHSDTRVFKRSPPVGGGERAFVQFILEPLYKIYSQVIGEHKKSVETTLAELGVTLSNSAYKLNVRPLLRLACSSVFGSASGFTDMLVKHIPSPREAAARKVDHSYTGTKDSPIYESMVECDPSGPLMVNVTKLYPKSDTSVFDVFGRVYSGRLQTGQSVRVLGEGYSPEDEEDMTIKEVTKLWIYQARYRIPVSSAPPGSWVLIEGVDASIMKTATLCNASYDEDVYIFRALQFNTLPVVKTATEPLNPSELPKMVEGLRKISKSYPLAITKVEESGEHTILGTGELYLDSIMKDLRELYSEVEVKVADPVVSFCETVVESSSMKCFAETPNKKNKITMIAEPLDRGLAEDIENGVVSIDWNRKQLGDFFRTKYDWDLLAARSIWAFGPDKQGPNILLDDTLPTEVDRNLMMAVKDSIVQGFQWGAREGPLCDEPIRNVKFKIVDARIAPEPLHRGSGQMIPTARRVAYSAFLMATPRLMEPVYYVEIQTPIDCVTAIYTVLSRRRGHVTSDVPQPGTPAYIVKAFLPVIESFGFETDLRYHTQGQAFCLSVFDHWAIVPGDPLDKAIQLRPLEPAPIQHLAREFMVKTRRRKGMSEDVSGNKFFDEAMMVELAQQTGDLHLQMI
# Experiment: two-hybrid; S. cerevisiae Y2H gold; RID1 or its fragments in pGADT7 (AD), GFA1 in pGBKT7 (BD); growth on SD/−Trp/−Leu/−His/−Ade and blue colour with X-α-gal; 30 °C, 3–5 d
row,binding,Substance
1,no binding,"RID1 segment containing the HA2 domain, fused to the Gal4 activation domain (Arabidopsis) (domain or fragment)"
2,no binding,"RID1 segment containing the OB-fold domain, fused to the Gal4 activation domain (Arabidopsis) (domain or fragment)"

# These are yes or no findings as the source states them, for the method shown. Tags and fused reporters may be left off the sequences shown.
